Experimental data from publication PMC6523062.
These are yes or no findings as the source states them, for the method shown. Binding seen in cells or lysates may run through a third protein. Some entries that bind do so weakly or less than the wild type. Tags and fused reporters may be left off the sequences shown.

Key:
[1] = molecular target: T1, cYFP-KIN11 (KIN11 fused to the C-terminal half of YFP) (Arabidopsis) (UniProt P92958); assay: split reporter; BiFC (split YFP), transient co-expression in Nicotiana benthamiana leaf epidermal cells under a DEX-inducible promoter; normal conditions: DEX and DMSO, no antimycin A
T1 sequence: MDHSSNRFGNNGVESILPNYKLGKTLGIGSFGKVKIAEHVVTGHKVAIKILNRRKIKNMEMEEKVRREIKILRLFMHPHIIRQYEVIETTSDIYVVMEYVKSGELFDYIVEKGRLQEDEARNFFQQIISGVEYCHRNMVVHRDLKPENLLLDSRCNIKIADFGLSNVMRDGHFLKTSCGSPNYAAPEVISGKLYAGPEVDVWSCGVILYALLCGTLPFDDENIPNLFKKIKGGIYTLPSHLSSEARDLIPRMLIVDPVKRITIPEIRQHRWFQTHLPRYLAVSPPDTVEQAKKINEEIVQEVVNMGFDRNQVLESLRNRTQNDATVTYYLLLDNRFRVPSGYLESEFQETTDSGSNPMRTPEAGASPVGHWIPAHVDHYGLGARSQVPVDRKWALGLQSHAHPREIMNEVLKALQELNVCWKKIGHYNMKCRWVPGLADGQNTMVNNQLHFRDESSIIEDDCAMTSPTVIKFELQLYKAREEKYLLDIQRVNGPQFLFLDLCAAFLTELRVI

[2] = molecular target: T1, cYFP-KIN11 (KIN11 fused to the C-terminal half of YFP) (Arabidopsis); assay: split reporter; BiFC (split YFP), transient co-expression in Nicotiana benthamiana leaf epidermal cells under a DEX-inducible promoter; leaves treated with DEX and 20 μg/ml antimycin A

B1: nYFP-SOG1 (SOG1 fused to the N-terminal half of yellow fluorescent protein) (protein, UniProt Q6NQK2 1-449)
chain: MAGRSWLIDSNRIATKIMSASASSDPRQVVWKSNPSRHCPKCQHVIDNSDVVDDWPGLPRGVKFDPSDPEIIWHLLAKSGLSGLSSHPFIDEFIPTVNQDDGICYTHPKNLPGVKSDGTVSHFFHKAIKAYSTGTRKRRKIHDDDFGDVRWHKTGRTKPVVLDGVQRGCKKIMVLYGGKAVKTNWVMHQYHLGIEEDEKEGDYVVSKIFYQQPQQLVVKRGDKAEQEVSEDIFAAVTPTADPVTPKLATPEPRNAVRICSDSHIASDYVTPSDYVSAHEVSLAETSEVMCMEDEVQSIQPNHERPSSGPELEHGLENGAKEMLDDKEEQEKDRDNENQGEEDPTWFDSGSQFILNSQQLVEALSLCDDLLGSQDREENTNSGSLKDKQPCIADYAHLGPEDFKRDLEECQKIVLDPSNIELDTPPEFRLSQLEFGSQDSFLAWGTGKTD
[1]
  binding: no binding (condition: without antimycin A (DEX and DMSO))
[2]
  binding: binds
